Test results taken from PMC10545476.
No constants are given. Whether binding was seen depends on the method and setting. In cells and extracts the contact can be indirect. Some results given as binding are weak or reduced against the parent protein; the word gives no strength.

Protein sequences, listed by entry. Tags and fused reporters are not part of them. Residues count along the entry.
UniProt P46531, residues 19-2555: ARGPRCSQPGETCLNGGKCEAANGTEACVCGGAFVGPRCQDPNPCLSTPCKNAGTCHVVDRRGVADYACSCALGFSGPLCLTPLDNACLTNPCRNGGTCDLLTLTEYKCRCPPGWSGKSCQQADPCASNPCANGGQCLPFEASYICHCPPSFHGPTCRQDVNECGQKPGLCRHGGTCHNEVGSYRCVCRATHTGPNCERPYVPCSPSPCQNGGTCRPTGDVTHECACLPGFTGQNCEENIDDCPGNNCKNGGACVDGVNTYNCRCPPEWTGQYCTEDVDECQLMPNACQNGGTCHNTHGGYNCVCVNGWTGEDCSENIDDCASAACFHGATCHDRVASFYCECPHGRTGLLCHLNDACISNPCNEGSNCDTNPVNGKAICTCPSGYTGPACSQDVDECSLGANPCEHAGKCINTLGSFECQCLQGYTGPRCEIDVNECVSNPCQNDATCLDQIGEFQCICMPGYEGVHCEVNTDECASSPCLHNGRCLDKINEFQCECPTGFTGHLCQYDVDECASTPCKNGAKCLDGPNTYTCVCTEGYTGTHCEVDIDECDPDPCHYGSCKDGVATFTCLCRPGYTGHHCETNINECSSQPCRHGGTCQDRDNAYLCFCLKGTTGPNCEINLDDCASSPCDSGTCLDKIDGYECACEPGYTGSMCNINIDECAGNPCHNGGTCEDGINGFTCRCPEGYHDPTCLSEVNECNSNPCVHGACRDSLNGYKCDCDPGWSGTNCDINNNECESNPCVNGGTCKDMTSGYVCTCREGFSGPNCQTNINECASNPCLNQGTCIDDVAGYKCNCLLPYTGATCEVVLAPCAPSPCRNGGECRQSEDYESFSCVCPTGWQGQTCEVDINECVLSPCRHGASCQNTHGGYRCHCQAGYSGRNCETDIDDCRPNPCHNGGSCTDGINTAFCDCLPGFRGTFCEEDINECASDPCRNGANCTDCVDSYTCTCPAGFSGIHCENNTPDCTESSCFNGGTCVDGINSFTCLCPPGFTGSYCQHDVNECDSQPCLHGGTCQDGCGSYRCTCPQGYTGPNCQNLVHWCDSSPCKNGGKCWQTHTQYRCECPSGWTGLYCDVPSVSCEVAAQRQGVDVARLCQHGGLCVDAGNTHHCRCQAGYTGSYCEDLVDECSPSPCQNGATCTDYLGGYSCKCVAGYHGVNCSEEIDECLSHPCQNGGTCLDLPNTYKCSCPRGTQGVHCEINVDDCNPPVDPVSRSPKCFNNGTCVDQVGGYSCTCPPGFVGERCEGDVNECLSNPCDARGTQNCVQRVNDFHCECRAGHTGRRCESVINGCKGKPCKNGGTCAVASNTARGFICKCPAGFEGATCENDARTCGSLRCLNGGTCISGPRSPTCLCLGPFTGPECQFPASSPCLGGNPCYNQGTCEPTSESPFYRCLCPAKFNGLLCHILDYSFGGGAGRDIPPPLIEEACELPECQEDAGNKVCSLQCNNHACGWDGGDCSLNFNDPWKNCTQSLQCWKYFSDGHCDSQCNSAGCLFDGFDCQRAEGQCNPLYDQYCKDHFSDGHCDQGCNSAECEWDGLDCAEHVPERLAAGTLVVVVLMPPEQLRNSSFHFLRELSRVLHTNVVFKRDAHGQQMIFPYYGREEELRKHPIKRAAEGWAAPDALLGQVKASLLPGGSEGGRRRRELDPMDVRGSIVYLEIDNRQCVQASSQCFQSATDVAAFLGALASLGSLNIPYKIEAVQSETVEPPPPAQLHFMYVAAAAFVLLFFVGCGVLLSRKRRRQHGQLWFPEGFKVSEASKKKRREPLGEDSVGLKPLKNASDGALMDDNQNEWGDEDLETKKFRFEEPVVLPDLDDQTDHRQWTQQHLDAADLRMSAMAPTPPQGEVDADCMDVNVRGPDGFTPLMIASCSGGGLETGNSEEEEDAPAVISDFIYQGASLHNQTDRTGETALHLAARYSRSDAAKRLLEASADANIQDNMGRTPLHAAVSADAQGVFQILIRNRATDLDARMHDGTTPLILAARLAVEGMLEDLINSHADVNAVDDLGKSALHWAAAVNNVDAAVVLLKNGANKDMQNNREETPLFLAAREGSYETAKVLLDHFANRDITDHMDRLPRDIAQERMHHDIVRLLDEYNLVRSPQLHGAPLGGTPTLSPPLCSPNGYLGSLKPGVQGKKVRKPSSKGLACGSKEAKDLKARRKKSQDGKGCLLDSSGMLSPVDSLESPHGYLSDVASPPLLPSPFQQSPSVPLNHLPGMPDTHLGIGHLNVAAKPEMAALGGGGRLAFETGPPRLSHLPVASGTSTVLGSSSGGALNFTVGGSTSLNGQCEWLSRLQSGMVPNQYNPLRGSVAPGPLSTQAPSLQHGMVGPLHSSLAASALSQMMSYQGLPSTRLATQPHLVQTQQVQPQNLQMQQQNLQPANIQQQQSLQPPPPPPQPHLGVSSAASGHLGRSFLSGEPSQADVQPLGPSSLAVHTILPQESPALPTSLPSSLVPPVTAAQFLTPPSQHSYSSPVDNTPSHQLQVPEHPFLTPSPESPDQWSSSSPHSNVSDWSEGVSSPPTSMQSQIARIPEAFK

Molecular target: NOTCH1 (human (endogenous in hiPSC-derived retinal organoids)) (UniProt P46531)
Assay: proximity ligation; Duolink in situ PLA (green) on sections of human retinal organoids; mouse anti-NOTCH1 and mouse anti-CRB1 ECD antibodies conjugated to plus or minus oligonucleotide probes, incubated overnight at 4°C

B1: CRB1 (wild-type, in control retinal organoids) (protein, UniProt P82279 26-1406)
chain: FCNKNNTRCLSNSCQNNSTCKDFSKDNDCSCSDTANNLDKDCDNMKDPCFSNPCQGSATCVNTPGERSFLCKCPPGYSGTICETTIGSCGKNSCQHGGICHQDPIYPVCICPAGYAGRFCEIDHDECASSPCQNGAVCQDGIDGYSCFCVPGYQGRHCDLEVDECASDPCKNEATCLNEIGRYTCICPHNYSGVNCELEIDECWSQPCLNGATCQDALGAYFCDCAPGFLGDHCELNTDECASQPCLHGGLCVDGENRYSCNCTGSGFTGTHCETLMPLCWSKPCHNNATCEDSVDNYTCHCWPGYTGAQCEIDLNECNSNPCQSNGECVELSSEKQYGRITGLPSSFSYHEASGYVCICQPGFTGIHCEEDVNECSSNPCQNGGTCENLPGNYTCHCPFDNLSRTFYGGRDCSDILLGCTHQQCLNNGTCIPHFQDGQHGFSCLCPSGYTGSLCEIATTLSFEGDGFLWVKSGSVTTKGSVCNIALRFQTVQPMALLLFRSNRDVFVKLELLSGYIHLSIQVNNQSKVLLFISHNTSDGEWHFVEVIFAEAVTLTLIDDSCKEKCIAKAPTPLESDQSICAFQNSFLGGLPVGMTSNGVALLNFYNMPSTPSFVGCLQDIKIDWNHITLENISSGSSLNVKAGCVRKDWCESQPCQSRGRCINLWLSYQCDCHRPYEGPNCLREYVAGRFGQDDSTGYVIFTLDESYGDTISLSMFVRTLQPSGLLLALENSTYQYIRVWLERGRLAMLTPNSPKLVVKFVLNDGNVHLISLKIKPYKIELYQSSQNLGFISASTWKIEKGDVIYIGGLPDKQETELNGGFFKGCIQDVRLNNQNLEFFPNPTNNASLNPVLVNVTQGCAGDNSCKSNPCHNGGVCHSRWDDFSCSCPALTSGKACEEVQWCGFSPCPHGAQCQPVLQGFECIANAVFNGQSGQILFRSNGNITRELTNITFGFRTRDANVIILHAEKEPEFLNISIQDSRLFFQLQSGNSFYMLSLTSLQSVNDGTWHEVTLSMTDPLSQTSRWQMEVDNETPFVTSTIATGSLNFLKDNTDIYVGDRAIDNIKGLQGCLSTIEIGGIYLSYFENVHGFINKPQEEQFLKISTNSVVTGCLQLNVCNSNPCLHGGNCEDIYSSYHCSCPLGWSGKHCELNIDECFSNPCIHGNCSDRVAAYHCTCEPGYTGVNCEVDIDNCQSHQCANGATCISHTNGYSCLCFGNFTGKFCRQSRLPSTVCGNEKTNLTCYNGGNCTEFQTELKCMCRPGFTGEWCEKDIDECASDPCVNGGLCQDLLNKFQCLCDVAFAGERCEVDLADDLISDIFTTIGSVTVALLLILLLAIVASVVTSNKRATQGTYSPSRQEKEGSRVEMWNLMPPPAMERLI
In the case of B1, the binding is reported as “binds”.
